This passage reports binding results from article PMC2613389.

By UniProt entry, the sequences of proteins in these tests, tags left out. Where a name states a change or a piece, a line headed by the entry shows the natural chain unless it says otherwise. Chains listed by the source or under a name are the forms on record and can include a tag or linker. Residues count along the entry.
UniProt P30679: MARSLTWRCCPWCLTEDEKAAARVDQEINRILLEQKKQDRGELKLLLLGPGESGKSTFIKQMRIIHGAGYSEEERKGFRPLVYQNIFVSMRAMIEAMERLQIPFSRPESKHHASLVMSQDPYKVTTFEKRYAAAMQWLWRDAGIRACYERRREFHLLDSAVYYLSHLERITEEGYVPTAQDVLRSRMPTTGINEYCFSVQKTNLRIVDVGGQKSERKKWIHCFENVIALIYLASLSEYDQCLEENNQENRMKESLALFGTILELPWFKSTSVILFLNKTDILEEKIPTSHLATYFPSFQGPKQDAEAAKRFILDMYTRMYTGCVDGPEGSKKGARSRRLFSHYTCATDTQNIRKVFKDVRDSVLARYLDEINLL
Gα16 5A mutant (all 5 residues of both clusters → Ala) (P30679, form named): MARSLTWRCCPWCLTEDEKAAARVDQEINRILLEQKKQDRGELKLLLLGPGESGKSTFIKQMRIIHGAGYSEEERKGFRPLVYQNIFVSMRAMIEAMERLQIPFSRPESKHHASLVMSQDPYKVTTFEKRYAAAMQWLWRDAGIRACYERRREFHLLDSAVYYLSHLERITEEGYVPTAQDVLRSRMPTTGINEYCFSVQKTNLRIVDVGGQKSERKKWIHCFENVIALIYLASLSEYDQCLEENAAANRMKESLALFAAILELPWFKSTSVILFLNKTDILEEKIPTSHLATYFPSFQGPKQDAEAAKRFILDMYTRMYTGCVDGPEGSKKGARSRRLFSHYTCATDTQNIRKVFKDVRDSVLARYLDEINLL
Gα16 3A mutant (cluster 1 Asn-Gln-Glu in switch III → Ala) (P30679, form named): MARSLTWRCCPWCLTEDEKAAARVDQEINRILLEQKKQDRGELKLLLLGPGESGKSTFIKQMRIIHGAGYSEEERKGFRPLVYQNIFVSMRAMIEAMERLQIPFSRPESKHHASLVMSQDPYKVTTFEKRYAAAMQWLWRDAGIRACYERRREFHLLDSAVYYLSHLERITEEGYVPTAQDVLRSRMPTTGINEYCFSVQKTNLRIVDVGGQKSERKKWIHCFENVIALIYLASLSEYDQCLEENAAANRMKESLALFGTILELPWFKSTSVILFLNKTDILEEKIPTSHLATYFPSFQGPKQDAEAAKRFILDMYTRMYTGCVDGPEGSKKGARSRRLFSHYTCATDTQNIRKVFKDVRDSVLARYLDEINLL
Gα16 2A mutant (Gly259-Thr260 → Ala) (P30679, form named): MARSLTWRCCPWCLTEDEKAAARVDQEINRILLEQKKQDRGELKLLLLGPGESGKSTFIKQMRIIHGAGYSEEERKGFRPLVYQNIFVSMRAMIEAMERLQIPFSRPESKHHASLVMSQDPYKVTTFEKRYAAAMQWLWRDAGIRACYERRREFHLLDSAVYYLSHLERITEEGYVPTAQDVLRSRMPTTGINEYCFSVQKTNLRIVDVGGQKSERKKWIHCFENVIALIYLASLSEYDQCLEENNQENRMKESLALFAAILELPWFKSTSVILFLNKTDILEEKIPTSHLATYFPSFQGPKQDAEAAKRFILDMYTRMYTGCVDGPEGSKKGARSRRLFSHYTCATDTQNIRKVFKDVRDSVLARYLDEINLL
Gα16QL (constitutively active mutant, Gln212 → Leu) (P30679, form named): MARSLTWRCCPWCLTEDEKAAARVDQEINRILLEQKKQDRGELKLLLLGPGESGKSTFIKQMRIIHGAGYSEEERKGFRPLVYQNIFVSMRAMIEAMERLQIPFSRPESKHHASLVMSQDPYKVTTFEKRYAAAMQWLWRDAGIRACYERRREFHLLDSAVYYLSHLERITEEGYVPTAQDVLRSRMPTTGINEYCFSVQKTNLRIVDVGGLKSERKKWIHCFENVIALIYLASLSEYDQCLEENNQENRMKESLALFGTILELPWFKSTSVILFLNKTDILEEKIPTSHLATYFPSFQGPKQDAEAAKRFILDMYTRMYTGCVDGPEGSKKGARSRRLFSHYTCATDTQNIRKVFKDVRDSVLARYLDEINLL
Gα16 2A-QL mutant (Gly259-Thr260 → Ala, Gln212 → Leu) (P30679, form named): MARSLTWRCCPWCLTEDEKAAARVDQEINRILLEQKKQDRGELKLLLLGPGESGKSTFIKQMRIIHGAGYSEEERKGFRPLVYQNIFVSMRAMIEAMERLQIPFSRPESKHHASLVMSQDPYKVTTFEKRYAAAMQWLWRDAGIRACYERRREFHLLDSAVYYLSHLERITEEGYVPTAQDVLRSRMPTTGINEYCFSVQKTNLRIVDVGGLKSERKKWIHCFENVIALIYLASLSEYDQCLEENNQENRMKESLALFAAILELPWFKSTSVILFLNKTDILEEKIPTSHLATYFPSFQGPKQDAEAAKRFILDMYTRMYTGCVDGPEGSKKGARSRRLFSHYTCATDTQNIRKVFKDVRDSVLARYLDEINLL
Gα16 3A-QL mutant (cluster 1 Asn-Gln-Glu → Ala, Gln212 → Leu) (P30679, form named): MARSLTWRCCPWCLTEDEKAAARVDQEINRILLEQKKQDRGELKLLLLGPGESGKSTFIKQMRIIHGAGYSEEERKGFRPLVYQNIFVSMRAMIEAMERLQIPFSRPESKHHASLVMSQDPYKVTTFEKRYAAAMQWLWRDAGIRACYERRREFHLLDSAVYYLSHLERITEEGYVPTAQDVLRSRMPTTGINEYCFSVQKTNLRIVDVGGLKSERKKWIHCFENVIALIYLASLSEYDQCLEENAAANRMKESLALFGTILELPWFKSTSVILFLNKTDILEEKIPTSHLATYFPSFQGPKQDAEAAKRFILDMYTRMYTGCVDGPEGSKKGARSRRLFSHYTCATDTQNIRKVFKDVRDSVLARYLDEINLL
Gα16 5A-QL mutant (all 5 residues of both clusters → Ala, Gln212 → Leu) (P30679, form named): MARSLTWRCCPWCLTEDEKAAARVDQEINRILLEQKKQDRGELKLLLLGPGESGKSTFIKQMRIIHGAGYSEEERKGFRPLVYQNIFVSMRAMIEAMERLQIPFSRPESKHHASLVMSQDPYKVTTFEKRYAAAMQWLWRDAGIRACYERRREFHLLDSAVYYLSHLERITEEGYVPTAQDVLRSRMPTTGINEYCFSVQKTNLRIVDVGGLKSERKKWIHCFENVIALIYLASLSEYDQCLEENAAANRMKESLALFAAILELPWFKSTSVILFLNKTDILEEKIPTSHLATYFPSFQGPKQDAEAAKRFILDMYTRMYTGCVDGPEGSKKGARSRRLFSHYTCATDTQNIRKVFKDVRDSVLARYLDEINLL

No constants are given. Whether binding was seen depends on the method and setting. In cells and extracts the contact can be indirect. Some binding calls cover weakened binding; strength is not graded here. Sequences can lack the tags named with a protein.

The test addresses T1, Flag-tagged full-length tetratricopeptide repeat 1 (TPR1) (human) (UniProt Q99614).
T1 sequence: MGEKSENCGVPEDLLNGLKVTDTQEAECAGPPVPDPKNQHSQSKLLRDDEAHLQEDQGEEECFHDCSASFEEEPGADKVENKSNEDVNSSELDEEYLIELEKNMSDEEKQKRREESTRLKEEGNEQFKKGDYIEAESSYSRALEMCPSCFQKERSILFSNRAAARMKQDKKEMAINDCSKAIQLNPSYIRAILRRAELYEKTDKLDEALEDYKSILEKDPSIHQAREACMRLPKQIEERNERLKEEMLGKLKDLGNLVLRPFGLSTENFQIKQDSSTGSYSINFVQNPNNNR
The test is described as follows: co-IP; HEK293 cells co-transfected with Flag-TPR1 and Gα16 constructs; cells treated with 0.5 mM DSP cross-linker for 15 min and lysed in RIPA buffer; IP with anti-FLAG affinity agarose (4°C overnight) or anti-Gα16 antiserum and protein G-agarose; Western blot.
Turning to “Gα16 5A mutant (all 5 residues of both clusters → Ala) (from UniProt P30679 1-374)”, the binding result is “binds”. In the case of “Gα16 (wild type) (from UniProt P30679 1-374)” it was “binds”; in that of “Gα16 3A mutant (cluster 1 Asn-Gln-Glu in switch III → Ala) (from UniProt P30679 1-374)”, “binds”; in that of “Gα16 2A mutant (Gly259-Thr260 → Ala) (from UniProt P30679 1-374)”, “binds”. In the case of “Gα16QL (constitutively active mutant, Gln212 → Leu) (from UniProt P30679 1-374)” it was “binds”; in that of “Gα16 2A-QL mutant (Gly259-Thr260 → Ala, Gln212 → Leu) (from UniProt P30679 1-374)”, “binds”. The same measure for “Gα16 3A-QL mutant (cluster 1 Asn-Gln-Glu → Ala, Gln212 → Leu) (from UniProt P30679 1-374)”: “binds”; for “Gα16 5A-QL mutant (all 5 residues of both clusters → Ala, Gln212 → Leu) (from UniProt P30679 1-374)”: “binds”.
